# Experimental data reported in publication PMC5996148.
# This is one part of the list. For some assays here: The source does not settle which construct or isoform was used.
# Tests used:
# Assay in all cases: protein microarray (ProtoArray v5.0), streptavidin-Alexa Fluor 647
# Settings in all cases: 3'-biotin; 20 mM Tris (pH 7.5), 5 mM MgCl2, 100 mM KCl, 0.1% Tween-20, A/T-rich and random oligonucleotide blockers; temperature not stated; high values mean tight binding
# PPT2 (human) = tested on: PPT2 (human)
# PQLC2 (human) = tested on: PQLC2 (human)
# PRAME (human) = tested on: PRAME (human)
# PRAP1 (human) = tested on: PRAP1 (human)
# PRCP (human) = tested on: PRCP (human)
# PRDX2 (human) = tested on: PRDX2 (human)
# PRDX3 (human) = tested on: PRDX3 (human)
# PRDX4 (human) = tested on: PRDX4 (human)
# [1] = tested on: PRELI domain-containing protein 2 (human)
# PRELID1 (human) = tested on: PRELID1 (human)
# PREP (human) = tested on: PREP (human)
# PRKACB (human) = tested on: PRKACB (human)
# PRKAR2A (human) = tested on: PRKAR2A (human)
# PRKCZ (human) = tested on: PRKCZ (human)
# PRKRIP1 = target: T1, PRKRIP1 (UniProt Q9H875)
# T1 sequence: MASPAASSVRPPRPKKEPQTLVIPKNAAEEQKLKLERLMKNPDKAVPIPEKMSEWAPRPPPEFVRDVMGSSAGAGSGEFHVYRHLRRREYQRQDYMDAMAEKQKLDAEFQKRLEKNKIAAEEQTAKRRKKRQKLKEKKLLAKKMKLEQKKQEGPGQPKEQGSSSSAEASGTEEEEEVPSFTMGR
# PRKRIR (human) = tested on: PRKRIR (human)
# PRMT6 (human) = tested on: PRMT6 (human)
# PRMT7 (human) = tested on: PRMT7 (human)
# PROCR (human) = tested on: PROCR (human)
# PRPS1 (human) = tested on: PRPS1 (human)
sequence,measurement,setting,value
GGGAGGCTGAGGCAGG [G4-1 biotinylated (PQS2)],binding signal,PPT2 (human),-0.359 z-score
same,binding signal,PQLC2 (human),-0.263 z-score
same,binding signal,PRAME (human),-0.302 z-score
same,binding signal,PRAP1 (human),-0.298 z-score
same,binding signal,PRCP (human),-0.341 z-score
same,binding signal,PRDX2 (human),-0.372 z-score
same,binding signal,PRDX3 (human),-0.35 z-score
same,binding signal,PRDX4 (human),-0.297 z-score
same,binding signal,[1],-0.342 z-score
same,binding signal,PRELID1 (human),-0.315 z-score
same,binding signal,PREP (human),-0.306 z-score
same,binding signal,PRKACB (human),-0.339 z-score
same,binding signal,PRKAR2A (human),-0.271 z-score
same,binding signal,PRKCZ (human),-0.295 z-score
same,binding signal,PRKRIP1,3.6 z-score
same,binding signal,PRKRIR (human),-0.334 z-score
same,binding signal,PRMT6 (human),-0.255 z-score
same,binding signal,PRMT7 (human),-0.358 z-score
same,binding signal,PROCR (human),-0.33 z-score
same,binding signal,PRPS1 (human),-0.286 z-score

# Some of the entries above, reformatted.
sequence | measurement | setting | value
GGGAGGCTGAGGCAGG [G4-1 biotinylated (PQS2)] | binding signal | PROCR (human) | -0.33 z-score
same | binding signal | PRPS1 (human) | -0.286 z-score
